# From patent US20240174980A1, “PROCESS FOR MANUFACTURE OF A COMPOSITION FOR THE TREATMENT OF OSTEOARTHRITIS IN A SUBJECT” (STEM CELLX EUROPE KFT, priority 2021, published 2024)
# Tested on: differentiating MSCs
# Test: Transcriptome analysis (next-generation sequencing, GO analysis) of differentiating MSCs treated with KYNA or THBS1
# Type: cell-based, canine
# Conditions: 50 ng/ml THBS1 added after 7 days of differentiation, for 5 days
substance,measurement,value
"THBS1: Thrombospondin 1, adhesive glycoprotein encoded by the THBS1 gene, added to differentiating MSCs at 50 ng/ml","THBS1 treatment (Significance), GO:0000278 mitotic cell cycle",4.6E−08
same,"THBS1 treatment (Significance), GO:0001503 bone formation",1.72E−07
same,"THBS1 treatment (Significance), GO:0001568 blood vessel formation",1.46E−06
same,"THBS1 treatment (Significance), GO:0031012 extracellular matrix",1.45E−06
same,"THBS1 treatment (Significance), GO:0051216 cartilage formation",0.0042
same,"THBS1 treatment (Significance), GO:0062023 collagen-containing extracellular matrix",1.09E−05
